These results are taken from the supplement of paper PMC4635364.

SMILES strings stand for the structures. Counter-ions that a name gives are not always drawn. The list shows a part of the results. Single values are uncertain here, since repeats match poorly.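 Cells: ReNCell VM human fetal ventral-midbrain neural progenitors, differentiated mitogen-free. Blinded raters compared doublecortin-stained (early neurons) or tyrosine hydroxylase-stained (dopaminergic neurons) images with untreated wells, where 0 means no change. After repeats and both raters were averaged, compounds scoring 2 or above became hits for retesting.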

For experiment [1], the system named is ReNCell VM. The experiment is described as follows: neuronal differentiation score (DCX+ cell fraction vs untreated, manual image score) (score (-3 to 3)); higher = more neuronal differentiation. The conditions noted are these: 2 uM, 2 weeks.
Experiment [2] deals with ReNCell VM. The experiment can be described thus: dopaminergic neuron differentiation score (TH+ cell fraction vs untreated, manual image score) (score (0 to 3)); higher = more TH+ dopaminergic neuron differentiation. Conditions: 2 uM, 4 weeks, BDNF 10 ng/ml + GDNF 10 ng/ml.

`CN1CCN(CCCN2c3ccccc3Sc3ccc(Cl)cc32)CC1`: the neuronal differentiation score in the experiment on ReNCell VM [1] (library: Spectrum) is inactive: 0. In the experiment on ReNCell VM [2] (library: Spectrum), the “dopaminergic neuron differentiation score” value was active: 3.
`CC(Cc1cccc(C(F)(F)F)c1)NCCOC(=O)c1ccccc1` (centres undefined) [Benfluorex hydrochloride]: the neuronal differentiation score with ReNCell VM [1] (library: Prestwick) is inactive: 0. Further, the “dopaminergic neuron differentiation score” value in the experiment on ReNCell VM [2] (library: Prestwick) was inactive: 1.
`NC(=O)CNCCC(c1ccccc1)c1ccccc1` [N-(3,3-Diphenylpropyl)glycinamide]: the neuronal differentiation score in the experiment with ReNCell VM [1] (library: LOPAC) is inactive: 0. The “dopaminergic neuron differentiation score” value with ReNCell VM [2] (library: LOPAC) was inactive: 0.
As to `COc1ccc(NS(=O)(=O)c2ccc(N)cc2)nn1` [Sulfamethoxypyridazine], in the experiment with ReNCell VM [1] (library: Prestwick), the neuronal differentiation score is inactive: 0. Moreover, the “dopaminergic neuron differentiation score” value with ReNCell VM [2] (library: Prestwick) is inactive: 0.
In the case of `C=COCC(F)(F)F`, in the experiment on ReNCell VM [1] (library: Spectrum), the neuronal differentiation score was inactive: 0. The “dopaminergic neuron differentiation score” value with ReNCell VM [2] (library: Spectrum) was inactive: 0.
For the compound `O=c1cc(-c2ccccc2O)oc2cc(O)ccc12`, the neuronal differentiation score with ReNCell VM [1] (library: Spectrum) was inactive: 0. In addition, in the experiment on ReNCell VM [2] (library: Spectrum), the “dopaminergic neuron differentiation score” value is inactive: 0.
Regarding `O=C(Cc1ccc(Cl)c(Cl)c1)OCCN1CCCC1` [AC 915 oxalate], in the experiment with ReNCell VM [1] (library: LOPAC), the neuronal differentiation score is inactive: 0. Besides, in the experiment on ReNCell VM [2] (library: LOPAC), the “dopaminergic neuron differentiation score” value was inactive: 0.
Consider `O=C(O)CCCc1ccccc1` [sodium 4-Phenylbutyrate], for which, in the experiment on ReNCell VM [1] (library: Tocriscreen), the neuronal differentiation score is inactive: 0. The “dopaminergic neuron differentiation score” value with ReNCell VM [2] (library: Tocriscreen) was inactive: 0.
`CC(C)c1nc(CN(C)C(=O)N[C@H](C(=O)N[C@@H](Cc2ccccc2)C[C@H](O)[C@H](Cc2ccccc2)NC(=O)OCc2cncs2)C(C)C)cs1`: the neuronal differentiation score in the experiment on ReNCell VM [1] (library: Spectrum) is inactive: 1. Further, in the experiment with ReNCell VM [2] (library: Spectrum), the “dopaminergic neuron differentiation score” value is inactive: 0.
Regarding `COc1c(N2C[C@@H]3CCCN[C@@H]3C2)c(F)cc2c(=O)c(C(=O)O)cn(C3CC3)c12` [Moxifloxacin], the neuronal differentiation score with ReNCell VM [1] (library: Prestwick) is inactive: 0. Also, in the experiment on ReNCell VM [2] (library: Prestwick), the “dopaminergic neuron differentiation score” value is inactive: 0.
`COc1cc2c(cc1OC)[C@@H]1C(=O)c3ccc4c(c3O[C@@H]1CO2)C=CC(C)(C)O4`: the neuronal differentiation score in the experiment with ReNCell VM [1] (library: Spectrum) is inactive: 0. Also, the “dopaminergic neuron differentiation score” value with ReNCell VM [2] (library: Spectrum) is inactive: 0.
Take `C[N+]1(C)CCC(OC(=O)C(c2ccccc2)c2ccccc2)CC1` [4-DAMP methiodide]: the neuronal differentiation score in the experiment with ReNCell VM [1] (library: LOPAC) was inactive: 0. In addition, in the experiment with ReNCell VM [2] (library: LOPAC), the “dopaminergic neuron differentiation score” value was inactive: 0.
